Experimental data from the supplement of paper PMC10849652.
The list shows a part of the results.

Protein sequences, listed by entry. Tags and fused reporters are not part of them. Lines headed by an entry give the natural chain unless they say otherwise; changes in a name come on top.
UniProt P42574: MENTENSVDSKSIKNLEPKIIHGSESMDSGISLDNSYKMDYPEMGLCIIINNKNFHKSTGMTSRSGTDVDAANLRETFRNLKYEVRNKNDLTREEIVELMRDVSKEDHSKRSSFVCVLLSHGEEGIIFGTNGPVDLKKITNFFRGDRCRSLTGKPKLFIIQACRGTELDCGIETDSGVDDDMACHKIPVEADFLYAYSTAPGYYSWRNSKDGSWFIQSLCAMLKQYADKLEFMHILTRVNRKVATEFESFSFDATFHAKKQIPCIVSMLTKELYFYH
UniProt P15529: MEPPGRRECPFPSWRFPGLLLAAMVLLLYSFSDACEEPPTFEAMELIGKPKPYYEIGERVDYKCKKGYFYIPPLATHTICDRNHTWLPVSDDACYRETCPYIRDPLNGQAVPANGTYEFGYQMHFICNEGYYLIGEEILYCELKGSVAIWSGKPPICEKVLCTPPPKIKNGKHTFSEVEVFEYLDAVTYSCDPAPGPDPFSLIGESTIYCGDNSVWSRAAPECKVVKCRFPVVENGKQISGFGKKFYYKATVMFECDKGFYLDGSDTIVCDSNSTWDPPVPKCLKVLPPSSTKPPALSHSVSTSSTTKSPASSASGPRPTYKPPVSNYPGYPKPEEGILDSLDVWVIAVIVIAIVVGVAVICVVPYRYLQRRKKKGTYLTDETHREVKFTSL
UniProt P19397: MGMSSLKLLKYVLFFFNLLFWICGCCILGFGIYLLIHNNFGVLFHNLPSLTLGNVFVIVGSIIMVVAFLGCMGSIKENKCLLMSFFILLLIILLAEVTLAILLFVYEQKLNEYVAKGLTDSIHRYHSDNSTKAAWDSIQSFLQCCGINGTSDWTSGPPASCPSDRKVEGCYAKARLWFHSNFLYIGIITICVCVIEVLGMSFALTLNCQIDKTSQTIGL
UniProt Q3V6T2: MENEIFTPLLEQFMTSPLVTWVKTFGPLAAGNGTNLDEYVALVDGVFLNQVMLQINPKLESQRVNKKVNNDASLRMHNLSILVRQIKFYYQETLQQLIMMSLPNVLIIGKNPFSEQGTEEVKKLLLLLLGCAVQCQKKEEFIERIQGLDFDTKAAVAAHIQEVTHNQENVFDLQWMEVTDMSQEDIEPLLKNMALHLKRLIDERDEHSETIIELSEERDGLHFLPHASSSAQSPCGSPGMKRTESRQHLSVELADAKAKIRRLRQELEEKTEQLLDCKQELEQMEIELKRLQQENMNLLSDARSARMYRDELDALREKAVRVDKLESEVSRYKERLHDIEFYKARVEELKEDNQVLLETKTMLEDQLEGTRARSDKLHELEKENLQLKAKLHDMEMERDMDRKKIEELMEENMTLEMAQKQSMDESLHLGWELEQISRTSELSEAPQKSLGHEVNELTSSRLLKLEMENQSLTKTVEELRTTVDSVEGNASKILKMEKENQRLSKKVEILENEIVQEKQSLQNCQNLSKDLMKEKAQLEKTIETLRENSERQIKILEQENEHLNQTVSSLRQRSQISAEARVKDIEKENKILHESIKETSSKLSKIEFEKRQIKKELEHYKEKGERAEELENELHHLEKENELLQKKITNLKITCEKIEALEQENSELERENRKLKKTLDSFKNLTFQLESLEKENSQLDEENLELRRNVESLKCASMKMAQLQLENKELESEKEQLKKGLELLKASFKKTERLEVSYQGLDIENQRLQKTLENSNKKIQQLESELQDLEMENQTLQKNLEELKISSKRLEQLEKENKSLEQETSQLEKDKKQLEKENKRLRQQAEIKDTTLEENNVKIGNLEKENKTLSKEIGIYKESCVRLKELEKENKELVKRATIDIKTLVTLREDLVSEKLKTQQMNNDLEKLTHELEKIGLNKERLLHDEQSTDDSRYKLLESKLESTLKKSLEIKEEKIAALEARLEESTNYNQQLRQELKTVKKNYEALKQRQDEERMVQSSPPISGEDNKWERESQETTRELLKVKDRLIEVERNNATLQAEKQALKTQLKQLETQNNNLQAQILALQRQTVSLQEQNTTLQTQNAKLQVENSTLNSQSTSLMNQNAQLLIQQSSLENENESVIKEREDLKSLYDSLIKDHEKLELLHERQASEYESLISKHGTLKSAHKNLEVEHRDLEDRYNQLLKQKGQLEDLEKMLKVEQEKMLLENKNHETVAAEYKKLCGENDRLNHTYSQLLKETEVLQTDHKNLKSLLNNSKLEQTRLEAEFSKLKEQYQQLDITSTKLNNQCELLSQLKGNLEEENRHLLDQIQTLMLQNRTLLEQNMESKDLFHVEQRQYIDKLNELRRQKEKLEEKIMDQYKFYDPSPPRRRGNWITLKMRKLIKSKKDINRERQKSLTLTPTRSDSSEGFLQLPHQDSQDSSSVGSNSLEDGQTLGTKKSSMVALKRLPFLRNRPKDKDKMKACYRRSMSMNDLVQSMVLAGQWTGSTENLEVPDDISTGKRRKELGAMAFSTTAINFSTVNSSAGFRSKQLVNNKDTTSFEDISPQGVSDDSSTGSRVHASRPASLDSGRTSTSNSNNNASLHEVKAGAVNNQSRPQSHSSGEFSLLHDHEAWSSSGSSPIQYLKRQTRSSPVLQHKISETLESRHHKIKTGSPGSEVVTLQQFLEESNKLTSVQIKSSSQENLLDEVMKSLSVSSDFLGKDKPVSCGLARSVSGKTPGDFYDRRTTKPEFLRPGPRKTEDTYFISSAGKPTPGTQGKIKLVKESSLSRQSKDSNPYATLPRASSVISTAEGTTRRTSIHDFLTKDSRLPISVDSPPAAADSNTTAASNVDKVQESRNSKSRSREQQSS
UniProt P40227, whole entry, looked up: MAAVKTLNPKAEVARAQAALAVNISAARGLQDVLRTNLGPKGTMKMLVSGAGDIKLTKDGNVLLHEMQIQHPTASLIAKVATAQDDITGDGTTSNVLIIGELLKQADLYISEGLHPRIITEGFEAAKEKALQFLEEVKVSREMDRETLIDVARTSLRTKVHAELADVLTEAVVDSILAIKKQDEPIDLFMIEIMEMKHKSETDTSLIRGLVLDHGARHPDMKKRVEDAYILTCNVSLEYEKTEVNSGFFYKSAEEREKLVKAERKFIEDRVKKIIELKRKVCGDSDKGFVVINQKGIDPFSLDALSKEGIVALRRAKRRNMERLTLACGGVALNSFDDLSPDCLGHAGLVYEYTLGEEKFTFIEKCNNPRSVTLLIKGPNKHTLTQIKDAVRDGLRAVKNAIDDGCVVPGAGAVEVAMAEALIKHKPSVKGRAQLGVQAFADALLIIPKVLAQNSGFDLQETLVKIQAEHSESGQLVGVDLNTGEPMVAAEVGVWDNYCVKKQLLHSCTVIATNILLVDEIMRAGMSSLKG
UniProt Q13951, whole entry, looked up: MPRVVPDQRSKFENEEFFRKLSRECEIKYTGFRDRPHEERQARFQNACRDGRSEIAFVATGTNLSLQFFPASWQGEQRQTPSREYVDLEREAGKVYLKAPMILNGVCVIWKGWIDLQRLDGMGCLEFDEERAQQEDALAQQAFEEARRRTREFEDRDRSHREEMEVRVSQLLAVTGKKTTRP
UniProt Q6PK04: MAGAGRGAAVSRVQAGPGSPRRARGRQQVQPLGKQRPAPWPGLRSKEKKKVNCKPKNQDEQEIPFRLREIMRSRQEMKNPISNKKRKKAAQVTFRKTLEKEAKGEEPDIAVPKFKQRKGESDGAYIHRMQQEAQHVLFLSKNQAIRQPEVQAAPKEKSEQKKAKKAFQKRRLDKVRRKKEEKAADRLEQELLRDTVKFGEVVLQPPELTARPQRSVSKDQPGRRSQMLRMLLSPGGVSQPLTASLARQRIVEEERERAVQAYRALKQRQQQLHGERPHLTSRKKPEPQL
UniProt Q96BQ5: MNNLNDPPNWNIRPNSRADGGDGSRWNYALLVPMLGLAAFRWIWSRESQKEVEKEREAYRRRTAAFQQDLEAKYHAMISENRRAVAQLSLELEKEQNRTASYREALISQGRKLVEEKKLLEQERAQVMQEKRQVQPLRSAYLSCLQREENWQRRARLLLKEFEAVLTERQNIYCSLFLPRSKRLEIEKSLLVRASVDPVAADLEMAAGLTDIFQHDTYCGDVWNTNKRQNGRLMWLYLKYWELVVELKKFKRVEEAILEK
UniProt Q4VC31: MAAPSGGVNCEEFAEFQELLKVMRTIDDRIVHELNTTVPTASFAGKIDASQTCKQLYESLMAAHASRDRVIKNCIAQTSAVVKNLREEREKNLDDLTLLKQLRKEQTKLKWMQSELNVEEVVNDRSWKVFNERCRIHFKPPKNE
UniProt P49368: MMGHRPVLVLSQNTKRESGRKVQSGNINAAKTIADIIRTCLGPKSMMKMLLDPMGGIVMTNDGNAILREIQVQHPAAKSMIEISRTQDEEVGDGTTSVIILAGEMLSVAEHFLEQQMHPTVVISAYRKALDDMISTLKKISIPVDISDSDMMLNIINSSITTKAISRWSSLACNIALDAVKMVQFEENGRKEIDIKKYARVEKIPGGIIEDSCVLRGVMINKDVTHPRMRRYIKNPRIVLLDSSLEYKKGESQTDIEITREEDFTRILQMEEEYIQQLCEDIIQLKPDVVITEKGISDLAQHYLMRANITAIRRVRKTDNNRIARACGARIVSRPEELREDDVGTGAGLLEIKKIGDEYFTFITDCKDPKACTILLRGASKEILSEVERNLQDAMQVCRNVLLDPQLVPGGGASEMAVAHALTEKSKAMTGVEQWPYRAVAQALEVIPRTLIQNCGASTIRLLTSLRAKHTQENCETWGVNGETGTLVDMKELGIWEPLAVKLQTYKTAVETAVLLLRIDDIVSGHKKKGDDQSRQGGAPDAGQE
UniProt P20810: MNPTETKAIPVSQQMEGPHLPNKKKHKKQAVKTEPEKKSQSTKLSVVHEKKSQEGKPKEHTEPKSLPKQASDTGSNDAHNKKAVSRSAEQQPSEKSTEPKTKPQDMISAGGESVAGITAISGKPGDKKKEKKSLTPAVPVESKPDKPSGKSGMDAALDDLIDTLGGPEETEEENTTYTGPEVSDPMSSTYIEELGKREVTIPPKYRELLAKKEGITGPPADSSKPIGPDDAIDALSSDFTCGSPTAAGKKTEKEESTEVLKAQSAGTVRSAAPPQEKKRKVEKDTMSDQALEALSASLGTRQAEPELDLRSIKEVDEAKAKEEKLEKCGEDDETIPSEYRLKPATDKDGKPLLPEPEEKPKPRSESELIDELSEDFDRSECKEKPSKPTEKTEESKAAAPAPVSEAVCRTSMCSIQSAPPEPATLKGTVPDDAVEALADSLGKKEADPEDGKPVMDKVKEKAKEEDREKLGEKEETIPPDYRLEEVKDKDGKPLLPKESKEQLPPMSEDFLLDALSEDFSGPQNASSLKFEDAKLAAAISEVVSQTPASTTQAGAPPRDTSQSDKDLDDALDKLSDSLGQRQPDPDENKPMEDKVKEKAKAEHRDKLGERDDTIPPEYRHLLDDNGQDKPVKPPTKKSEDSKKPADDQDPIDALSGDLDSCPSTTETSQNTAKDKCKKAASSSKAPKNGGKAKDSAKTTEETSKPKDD
UniProt Q7Z6B0: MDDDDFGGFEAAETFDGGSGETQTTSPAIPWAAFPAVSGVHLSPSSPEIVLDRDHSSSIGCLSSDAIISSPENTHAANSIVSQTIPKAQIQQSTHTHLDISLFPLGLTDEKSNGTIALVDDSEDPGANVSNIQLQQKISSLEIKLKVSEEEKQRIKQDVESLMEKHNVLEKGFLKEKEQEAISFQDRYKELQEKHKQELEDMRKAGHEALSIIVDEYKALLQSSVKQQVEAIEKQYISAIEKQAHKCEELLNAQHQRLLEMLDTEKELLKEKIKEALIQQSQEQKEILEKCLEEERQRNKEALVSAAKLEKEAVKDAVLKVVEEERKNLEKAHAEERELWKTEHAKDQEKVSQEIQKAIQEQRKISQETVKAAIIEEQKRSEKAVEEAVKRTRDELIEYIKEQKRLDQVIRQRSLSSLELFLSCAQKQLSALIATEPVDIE
UniProt Q567U6, whole entry, looked up: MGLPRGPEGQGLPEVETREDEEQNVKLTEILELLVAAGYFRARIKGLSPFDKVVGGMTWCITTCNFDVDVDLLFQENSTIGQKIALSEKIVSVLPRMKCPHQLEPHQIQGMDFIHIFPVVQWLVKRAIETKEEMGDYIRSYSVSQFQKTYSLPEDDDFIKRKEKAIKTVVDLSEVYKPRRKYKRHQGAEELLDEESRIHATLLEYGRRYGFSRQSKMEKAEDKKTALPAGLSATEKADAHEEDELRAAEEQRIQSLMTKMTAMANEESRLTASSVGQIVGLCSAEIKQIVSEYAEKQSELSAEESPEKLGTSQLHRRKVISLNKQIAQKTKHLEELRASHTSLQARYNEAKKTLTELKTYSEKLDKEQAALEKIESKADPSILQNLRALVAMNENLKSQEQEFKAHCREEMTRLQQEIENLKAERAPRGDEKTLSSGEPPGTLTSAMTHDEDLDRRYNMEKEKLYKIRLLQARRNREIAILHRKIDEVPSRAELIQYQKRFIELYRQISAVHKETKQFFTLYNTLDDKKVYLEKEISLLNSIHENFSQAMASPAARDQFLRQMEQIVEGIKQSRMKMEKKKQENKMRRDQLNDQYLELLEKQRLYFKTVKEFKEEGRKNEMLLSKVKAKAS

Experiments:
Assay in all cases: log2 fold change, soluble protein after heating vs DMSO (PISA); higher = thermal stabilisation; K562 cells, 10 uM, 30 min; active = over 0.2 and 3.5 SD of the protein, either way, in both replicates (recomputed)
[1] = compound: C#Cc1cccc(Nc2ncnc3cc(OCCOC)c(OCCOC)cc23)c1 [erlotinib]
Procedure, shortened: (§1)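 K562 cells (2×10^6 cells/mL) were treated with 10 μM compound for 30 min, and aliquots were heated for 3 min over 48°C-58°C. Pooled aliquots were extracted in PBS with 0.5% NP-40 at 4°C, and the supernatant after 21,000xg for 90 min was measured by TMTpro 16plex LC-MS/MS with channel sums equalised. Reported thermal stability, relative to control samples and from duplicates, is a log2 fold change.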

[2] = compound: C/C(=N\NC(=O)C1=CC(=CC=C1)S(=O)(=O)N2CCOCC2)/C3=C(C=CC(=C3)Cl)O
Procedure, shortened: as §1

[3] = compound: C1=CC(=C(C=C1Cl)C2=NC3=NC=CN=C3C(=N2)NC4=CC=NC=C4)F
Procedure, shortened: as §1

[4] = compound: C1=CC(=CC=C1C2=NC3=C(N2)C=C(C=C3)C(=O)N)OC4=CC=C(C=C4)Cl
Procedure, shortened: as §1

[5] = compound: C1=CC2=C(C=CC(=C2)/C=C\3/C(=O)NC(=NCC4=CC=CS4)S3)N=C1
Procedure, shortened: as §1

[6] = compound: C1=CC2=NC=CN=C2C=C1/C=C/3\C(=O)NC(=O)S3
Procedure, shortened: as §1

[7] = compound: C1=CC=C(C=C1)C2=NC(=C(N2)C3=CC=NC=C3)C4=CC(=C(C=C4)Cl)O
Procedure, shortened: as §1

[8] = compound: C1=CC=C2C(=C1)C3=NNC4=CC=CC(=C43)C2=O
Procedure, shortened: as §1

[9] = compound: C1CCN(C1)C(=O)NC2=CC=CC(=C2)NC3=NC=C(C(=N3)NCCC4=CN=CN4)Br
Procedure, shortened: as §1

[10] = compound: C1CN(CCC1(CC2=CC=C(C=C2)Cl)N)C3=NC=NC4=C3C=CN4
Procedure, shortened: as §1

Measured: log2 fold change

CCNC (UniProt P24863)
inactive: [1] -0.056 | [2] -0.077 | [3] -0.122 | [4] -0.026 | [5] 0.096 | [6] 0.256 | [7] -0.001 | [8] 0.209

CASP3 (UniProt P42574)
inactive: [1] -0.014 | [2] -0.021 | [3] 0.238 | [4] 0.006 | [5] -0.005 | [6] -0.001 | [7] 0.086 | [8] 0.015 | [9] -0.028 | [10] 0.093

CD46 isoform 2 (UniProt P15529)
inactive: [1] 0.034 | [2] 0 | [3] -0.018 | [4] -0.007 | [5] -0.072 | [6] -0.002 | [7] 0.023 | [8] -0.011 | [9] -0.036 | [10] 0.056

CCNT1 (UniProt O60563)
inactive: [1] -0.026 | [2] 0.036 | [3] -0.141 | [4] 0.047 | [5] -0.041 | [6] -0.05 | [7] -0.129 | [8] -0.084 | [9] -0.014 | [10] -0.059

CD53 (UniProt P19397)
inactive: [1] 0.041 | [2] 0.028 | [3] 0.059 | [4] -0.006 | [5] 0.064 | [6] 0.01 | [7] -0.221 | [8] -0.086 | [9] -0.001 | [10] -0.007

CCDC88A (UniProt Q3V6T2)
inactive: [1] 0.168 | [2] -0.048 | [3] -0.079 | [4] -0.013 | [5] 0.177 | [6] 0.136 | [7] 0 | [8] -0.032 | [9] -0.055 | [10] -0.067

CCNE1 (UniProt P24864)
inactive: [1] -0.129 | [2] -0.082 | [3] 0.354 | [4] 0.048 | [5] -0.046 | [6] 0.031 | [7] -0.039 | [8] 0.125 | [9] 0.004 | [10] -0.545

CBX3 (UniProt Q13185)
inactive: [1] -0.024 | [2] 0.032 | [3] 0.21 | [4] 0.045 | [5] 0.063 | [6] -0.005 | [7] -0.022 | [8] -0.02 | [9] 0.037 | [10] 0.024

CDC37 (UniProt Q16543)
inactive: [1] 0.01 | [2] -0.057 | [3] 0.083 | [4] -0.013 | [5] -0.03 | [6] 0.031 | [7] 0.004 | [8] 0.093 | [9] -0.005 | [10] -0.003

CCT6A (UniProt P40227)
inactive: [1] -0.02 | [2] 0 | [3] 0.043 | [4] -0.003 | [5] -0.01 | [6] -0.027 | [7] -0.006 | [8] 0.007 | [9] -0.018 | [10] 0.009

CDC123 (UniProt O75794)
inactive: [1] -0.039 | [2] 0.038 | [3] 0.011 | [4] 0.036 | [5] -0.021 | [6] 0.032 | [7] 0.048 | [8] -0.001 | [9] -0.001 | [10] 0.023

CBFB isoform 2 (UniProt Q13951)
inactive: [1] -0.048 | [2] 0.073 | [3] 0.109 | [4] -0.063 | [5] -0.01 | [6] 0.057 | [7] 0 | [8] -0.038 | [9] 0.057 | [10] -0.076

CD151 (UniProt P48509)
inactive: [1] -0.035 | [2] 0.029 | [3] 0.045 | [4] 0.103 | [5] -0.021 | [6] 0.069 | [7] 0.021 | [8] -0.125 | [9] -0.021 | [10] 0.113

CCND3 (UniProt P30281)
inactive: [1] -0.028 | [2] -0.025 | [3] -0.081 | [4] 0.036 | [5] 0.143 | [6] 0.289 | [7] 0.047 | [8] -0.001 | [9] 0.09 | [10] -0.043

CCDC137 (UniProt Q6PK04)
inactive: [1] -0.244 | [2] -0.173 | [3] 0.117 | [4] 0.004 | [5] -0.032 | [6] -0.043 | [7] -0.174 | [8] 0.066 | [9] 0.126 | [10] -0.078

CCDC127 (UniProt Q96BQ5)
inactive: [1] -0.017 | [2] 0.012 | [3] 0.053 | [4] -0.043 | [5] 0.018 | [6] 0.027 | [7] -0.073 | [8] -0.02 | [9] -0.047 | [10] -0.004

CBX5 (UniProt P45973)
inactive: [1] -0.018 | [2] 0.08 | [3] 0 | [4] 0.043 | [5] 0.111 | [6] 0.025 | [7] 0.003 | [8] -0.028 | [9] -0.002 | [10] -0.015

CCDC58 (UniProt Q4VC31)
inactive: [1] -0.033 | [2] -0.027 | [3] 0.015 | [4] 0.069 | [5] -0.033 | [6] 0.019 | [7] -0.024 | [8] -0.041 | [9] 0.033 | [10] 0.055

CCDC51 (UniProt Q96ER9)
inactive: [1] 0 | [2] -0.009 | [3] 0.151 | [4] -0.047 | [5] 0.033 | [6] -0.009 | [7] 0.024 | [8] 0.033 | [9] 0 | [10] 0.057

CCT3 (UniProt P49368)
inactive: [1] 0.012 | [2] -0.008 | [3] -0.126 | [4] 0.01 | [5] -0.002 | [6] -0.03 | [7] 0.039 | [8] 0.006 | [9] 0.016 | [10] -0.002

CAST isoform 6 (UniProt P20810)
inactive: [1] -0.028 | [2] -0.014 | [3] 0.036 | [4] 0 | [5] -0.006 | [6] 0.022 | [7] -0.039 | [8] -0.017 | [9] 0.026 | [10] 0.027

CCDC134 (UniProt Q9H6E4)
inactive: [1] -0.001 | [2] -0.035 | [3] -0.068 | [4] 0 | [5] -0.063 | [6] 0.025 | [7] 0.015 | [8] -0.029 | [9] 0.028 | [10] 0.001

CASP6 (UniProt P55212)
inactive: [1] -0.002 | [2] 0.066 | [3] 0.052 | [4] 0.046 | [5] -0.062 | [6] -0.092 | [7] -0.018 | [8] -0.024 | [9] -0.062 | [10] 0.062

CC2D1B isoform 2 (UniProt Q5T0F9)
inactive: [1] 0.011 | [2] 0.077 | [3] -0.082 | [4] 0.018 | [5] 0.071 | [6] -0.002 | [7] 0.037 | [8] 0.008 | [9] 0.019 | [10] -0.025

CCDC25 (UniProt Q86WR0)
inactive: [1] 0.14 | [2] 0.065 | [3] 0.07 | [4] -0.02 | [5] 0.049 | [6] 0.012 | [7] 0.027 | [8] 0.01 | [9] -0.034 | [10] -0.009

CCDC91 (UniProt Q7Z6B0)
inactive: [1] 0.083 | [2] -0.003 | [3] 0.038 | [4] -0.132 | [5] -0.019 | [6] 0.052 | [7] -0.024 | [8] 0.014 | [9] 0.033 | [10] 0.006

CCDC93 (UniProt Q567U6)
inactive: [1] 0.01 | [2] 0.066 | [3] -0.072 | [4] 0.026 | [5] 0.021 | [6] 0.033 | [7] 0.021 | [8] 0.005 | [9] -0.002 | [10] 0.028

CCNB2 (UniProt O95067)
inactive: [1] 0.038 | [2] 0.005 | [3] 0.015 | [4] 0.079 | [5] 0.036 | [6] 0.032 | [7] -0.039 | [8] 0.04 | [9] 0 | [10] -0.016

CCT4 (UniProt P50991)
inactive: [1] -0.008 | [2] 0.019 | [3] 0.021 | [4] 0.019 | [5] 0.009 | [6] -0.003 | [7] 0.06 | [8] 0.012 | [9] 0.003 | [10] 0.002

CAT (UniProt P04040)
inactive: [1] 0.002 | [2] -0.021 | [3] 0.007 | [4] 0 | [5] -0.048 | [6] -0.006 | [7] 0.004 | [8] -0.034 | [9] 0.012 | [10] 0.041

Quoted from above (two entries):
CCDC91 (UniProt Q7Z6B0)
inactive: [1] 0.083 | [2] -0.003 | [3] 0.038 | [4] -0.132 | [5] -0.019 | [6] 0.052 | [7] -0.024 | [8] 0.014 | [9] 0.033 | [10] 0.006

CCDC93 (UniProt Q567U6)
inactive: [1] 0.01 | [2] 0.066 | [3] -0.072 | [4] 0.026 | [5] 0.021 | [6] 0.033 | [7] 0.021 | [8] 0.005 | [9] -0.002 | [10] 0.028
